According to patent publication US20220380341A1, “INHIBITORS OF HIV-1 NEF FOR THE TREATMENT OF HIV DISEASE” (priority 2018, published 2022):
For at least one compound, name, drawing or mass did not settle the structure.

Target: HIV-1 NefNL4-3 (Human immunodeficiency virus type 1 group M subtype B, UniProt P03406, A33V/T15A/T51N/V11I)
Assay: Surface plasmon resonance binding to recombinant full-length Nef (NL4-3)
Details: for T, minutes (residence time): Table 4, 2-step induced fit, T = 1/koff2; for RU30/RUNef (extent of binding): response units at 30 μM relative to Nef immobilized on the SPR chip

## CC(C)(C)OC(=O)N1CCC(CCc2c(-c3ccc(C(F)(F)F)cc3)nn(-c3nc4ccccc4[nH]3)c2O)CC1 [Compound I-204]
  T, minutes (residence time): 1.02E + 05 minutes
  RU30/RUNef (extent of binding): 8.83E- 03

## O=C(c1c(O)cc(O)cc1O)N1CCCC1c1nn(-c2nc3ccccc3[nH]2)c(O)c1CCc1ccc(F)cc1 (stereo not shown) [Compound I-762, 2-{2-[1-(1H-1,3-benzodiazol-2-yl)-4-[2-(4-fluorophenyl)ethyl]-5-hydroxy-1H-pyrazol-3-yl]pyrrolidine-1-carbonyl}benzene-1,3,5-triol]
  T, minutes (residence time): 6.59E + 03 minutes
  RU30/RUNef (extent of binding): 2.87E- 03
